# Primary screen of a compound library

The chains behind the UniProt entries cited, without tags or fusion partners. Residues count along the entry.
UniProt Q8IDJ8, 1-583: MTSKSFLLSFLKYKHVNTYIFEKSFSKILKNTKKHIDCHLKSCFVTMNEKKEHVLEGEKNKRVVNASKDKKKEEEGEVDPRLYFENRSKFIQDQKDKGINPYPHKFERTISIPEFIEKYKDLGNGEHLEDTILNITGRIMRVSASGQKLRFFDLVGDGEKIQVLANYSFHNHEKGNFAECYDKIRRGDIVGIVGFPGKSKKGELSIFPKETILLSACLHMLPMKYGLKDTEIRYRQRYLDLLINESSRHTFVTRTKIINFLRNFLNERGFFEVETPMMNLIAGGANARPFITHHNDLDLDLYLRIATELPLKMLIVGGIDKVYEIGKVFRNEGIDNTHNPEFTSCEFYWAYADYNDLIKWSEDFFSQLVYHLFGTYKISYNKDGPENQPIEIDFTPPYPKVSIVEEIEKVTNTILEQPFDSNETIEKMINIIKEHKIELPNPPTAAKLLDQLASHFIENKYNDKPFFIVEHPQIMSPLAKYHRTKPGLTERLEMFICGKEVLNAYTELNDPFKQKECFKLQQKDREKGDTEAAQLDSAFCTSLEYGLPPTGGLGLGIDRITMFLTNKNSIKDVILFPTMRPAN
UniProt A4I591, 1-473: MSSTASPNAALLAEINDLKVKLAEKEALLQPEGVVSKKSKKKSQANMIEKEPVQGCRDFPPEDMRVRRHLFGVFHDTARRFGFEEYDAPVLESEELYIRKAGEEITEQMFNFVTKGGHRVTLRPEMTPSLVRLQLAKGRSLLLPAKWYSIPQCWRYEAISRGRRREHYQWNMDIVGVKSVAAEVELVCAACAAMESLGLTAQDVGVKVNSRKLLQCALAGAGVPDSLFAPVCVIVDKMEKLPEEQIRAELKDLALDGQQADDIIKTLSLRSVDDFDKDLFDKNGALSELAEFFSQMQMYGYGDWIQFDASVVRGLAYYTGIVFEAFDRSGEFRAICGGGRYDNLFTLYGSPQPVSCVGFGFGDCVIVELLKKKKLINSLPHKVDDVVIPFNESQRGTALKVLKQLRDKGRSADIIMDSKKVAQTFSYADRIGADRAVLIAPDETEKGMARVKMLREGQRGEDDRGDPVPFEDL

From ChEMBL document CHEMBL3988442, “University of Dundee, Small-Polar-MMV Screening Library” (2021).

The filed quantity is “Percent Effect” (%). The record does not define 0% and 100%; most values in the screen are far below 50% and negative numbers occur (in some assays of this library far below -100). This is an unselected part of the compounds tested. A dash means the value is not listed here; it may have been measured.

T. brucei: 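Whole-parasite assay of Trypanosoma brucei over 72 hours; the read-out is not stated. Concentration: 30 µM. Direction is inferred from retests: higher values go with stronger inhibition. Values scatter widely below zero; nearly all retest evidence comes from the higher of the two concentrations used. Of about 64,000 compounds tested this way, about 940 (1.5%) reached 50% or more in at least one test.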
PfKRS1: 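Lysine-tRNA ligase, Plasmodium falciparum 3D7 (UniProt Q8IDJ8). Enzyme assay of the cytosolic lysyl-tRNA synthetase in 384-well plates, read by luminescence. Concentration: 30 µM. Higher reads as stronger inhibition, judged from the few compounds that gave an IC50. Size under these conditions: about 69,000 compounds, about 49 of them at 50% or above in at least one test.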
LiHisRS: 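Histidine-tRNA ligase, Leishmania infantum (UniProt A4I591). Enzyme assay of histidyl-tRNA synthetase; the read-out is not stated. Tested at 30 µM. Higher reads as stronger inhibition (inferred: compounds with an IC50 in retests scored well above the rest). The assay is labelled LdHisRS but filed under L. infantum. Of about 69,000 compounds tested this way, about 410 (0.6%) reached 50% or more in at least one test.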
Toxoplasma: 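Assay of Toxoplasma gondii numbers, read through their beta-galactosidase reporter with a colour substrate. Tested at 10 µM. The record gives no direction; the compounds picked for IC50 retests had high values, so higher reads as fewer parasites. About 67,000 compounds were tested under these conditions; 0.38% (about 260) showed 50% or more at least once.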

SMILES | T. brucei | PfKRS1 | LiHisRS | Toxoplasma
Cc1ccc2c(c1)c(C)cc(=O)n2CCC(=O)O | -7.955 | 1.206 | 10.75 | 8.773
Cc1cc(NCCO)nc(N2CCC(Cc3ccccc3)CC2)c1C#N.O=C(O)C(=O)O | -2.463 | - | - | 62.98
CSc1ccc(C(C)NC(=O)c2cc(C)on2)cc1 (stereo unspecified) | -33.68 | 2.244 | 11.83 | -22.72
CCc1noc(C)c1C(=O)N1CCCN(Cc2cscn2)CC1 | - | -0.1084 | 15.04 | 2.279
O=C(c1ccc(=O)[nH]c1)N1CCC(Oc2cccc(C(F)(F)F)c2)CC1 | 9.238 | 2.246 | 12.4 | -13.86
COc1ccccc1OCCNCc1c(C)nn(C)c1N(C)C | - | 1.441 | 7.339 | -
N#Cc1cccc(OCCN2CCn3c(nnc3C3CC3)C2)c1 | -2.852 | 1.925 | 12.07 | -5.572
Cc1nn(C)c(Cl)c1C1CCCN1Cc1ccccn1 (stereo unspecified) | 11.35 | -2.135 | 10.53 | -11.4
Cc1cc(CN2CCN(C(=O)NCc3c(C)noc3C)CC2)on1 | 18.42 | 1.072 | 11.4 | -8.129
[H][C@@]12CCN(c3ncccn3)[C@]1([H])CC[C@H](C(=O)N1CCCCO1)O2 | -32.56 | - | - | 7.588
COCCc1noc(CN2CCCc3cccc(OC)c32)n1 | -17.41 | 1.985 | 10.92 | 3.472
Cc1nnc(CN(C)C2CCN(CCc3cccs3)C2)n1C (stereo unspecified) | -36.74 | -3.341 | 14.52 | 15.08
[H][C@@]12OCCN(C(=O)c3occc3C)[C@@]1([H])CC[C@H]2OCc1ccncc1 | -10.74 | - | - | 19.16
COc1ccccc1-c1ncc(CN2CCC3(CCNCC3)CC2)cn1 | -20.62 | 3.973 | 7.292 | 1.04
[H][C@@]12CC[C@@]([H])(C1)[C@H](Nc1nc(-c3ccncc3)nc3c1cnn3C)C2 | -15.13 | - | - | 21.77
CCC1CCC(N(Cc2cc(=O)n(C)c(=O)n2C)C2CC2)CC1 (stereo unspecified) | -30.15 | 1.307 | 30.14 | -0.5299
Cc1nc(CNC(=O)Nc2ccc3c(ccn3CCN(C)C)c2)no1 | -6.711 | 6.861 | 12.7 | -3.894
CN(C)[C@@H]1CCN(c2ncccn2)[C@H]1Cc1ccccc1 | 26.25 | -2.232 | 14.15 | 3.35
COc1ccc(OCCN2CCC(N3CCNC3=O)CC2)cc1 | - | -4.388 | -1.835 | 33.53
CC(C)N1CCCC2(CCN(Cc3nncn3C(C)C)C2)C1=O (stereo unspecified) | -4.697 | 5.335 | 20.21 | -15.73
Cc1nc2c(c(NC(C)C)n1)CCN(Cc1cccnc1)CC2.O=C(O)C(F)(F)F.O=C(O)C(F)(F)F | -46.22 | - | - | -5.165
CNC(=O)[C@@]12CCO[C@@H]1CCN(S(=O)(=O)c1cccc(C)c1)C2 | - | 5.53 | 10.53 | -
CN(CCNC(=O)c1scnc1Cl)c1ccccc1 | -16.67 | 9.654 | -71.62 | -111.3
[H][C@]12CC[C@]([H])(CN(C(=O)c3ccccc3)C1)N(C(=O)CN1CCOCC1)C2 | 2.373 | - | - | 6.723
Cn1nccc1-c1cnc2n1CCNC21CCN(C(=O)C2(C)CC2)CC1 | -9.984 | 2.029 | 5.941 | 14.18
CCn1c(CN2CCOC(Cn3cncn3)C2)nc2cc(F)ccc21 (stereo unspecified) | -35.99 | 6.006 | 10.34 | 8.59
CCn1nc(C(C)C)cc1C(=O)NCc1nc2ccc(OC)cc2[nH]1 | -2.592 | 6.05 | 17.02 | -6.275
c1ccc(CCN2CCOC(Cn3cccn3)C2)nc1 (stereo unspecified) | 2.984 | 2.813 | 10.67 | 1.831
COCCNS(=O)(=O)c1ccc(CNc2ncccc2C#N)cc1 | -19.07 | 4 | 10.83 | 0.6849
[H][C@]12CCN(C(=O)c3cccc(F)c3)C[C@@]1([H])OCCN(c1ncccn1)C2 | -303.9 | - | - | 11.49
CC(=O)N1N=C(Cc2ccccc2)OC1C(=O)NCC(=O)OC(C)(C)C (stereo unspecified) | 18.54 | 0.799 | 9.901 | -32.45
CN1CCC(c2cccc(Cc3ccc(C(F)(F)F)cc3)n2)CC1 | 100.8 | 3.159 | 24.74 | 4.643
Cc1csc(C2CCCN(C(=O)c3cnc4n[nH]c(C)c4c3)C2)n1 (stereo unspecified) | 46.41 | 2.986 | 40.48 | 12.23
O=C(NC1CC1)N1CCc2ccc(=O)n(CC3CC3)c2CC1 | -23.21 | 2.645 | 19.3 | 3.15
O=C(O)C(F)(F)F.c1ccc(Cn2cc3c(n2)C(COCC2CC2)OCC3)nc1 (stereo unspecified) | -58.45 | - | - | -2.106
Cc1nc(N2CCCC2C(=O)NC(C)(C)CO)nc2ccccc12 (stereo unspecified) | -13.13 | 1.776 | 0 | 6.923
Cc1n[nH]cc1CNCC1(c2ccc3c(c2)OCO3)CCOCC1.Cl | -6.911 | - | - | 3.059
O=C(O)C(F)(F)F.[H][C@]12CCN(S(=O)(=O)CC(C)C)CC[C@@]1([H])S(=O)(=O)CCN2CC(C)C | -36.69 | - | - | 0.7559
Cn1nc(C(C)(C)C)cc1NC(=O)CSc1nnc[nH]1 | -25.57 | 3.275 | 12.33 | 0.6321
CC(Cn1cncn1)NC(=O)Nc1ccc(F)cc1OCC1CC1 (stereo unspecified) | -42.79 | 5.073 | 12.9 | -1.087
CC(C)COc1cncc(NCC(O)c2ccco2)n1 (stereo unspecified) | -42.8 | -5.966 | -7.463 | -3.335
CN(C)Cc1ccc(C(=O)N2CCCC(n3cccn3)C2)cc1 (stereo unspecified) | -22.56 | -0.9624 | -3.03 | 5.139

For reference, 5 entries once more:

{"smiles": "[H][C@@]12CC[C@@]([H])(C1)[C@H](Nc1nc(-c3ccncc3)nc3c1cnn3C)C2", "T. brucei": -15.13, "Toxoplasma": 21.77}
{"smiles": "Cc1nnc(CN(C)C2CCN(CCc3cccs3)C2)n1C", "stereo": "stereo unspecified", "T. brucei": -36.74, "PfKRS1": -3.341, "LiHisRS": 14.52, "Toxoplasma": 15.08}
{"smiles": "CN(C)Cc1ccc(C(=O)N2CCCC(n3cccn3)C2)cc1", "stereo": "stereo unspecified", "T. brucei": -22.56, "PfKRS1": -0.9624, "LiHisRS": -3.03, "Toxoplasma": 5.139}
{"smiles": "CCn1nc(C(C)C)cc1C(=O)NCc1nc2ccc(OC)cc2[nH]1", "T. brucei": -2.592, "PfKRS1": 6.05, "LiHisRS": 17.02, "Toxoplasma": -6.275}
{"smiles": "[H][C@]12CC[C@]([H])(CN(C(=O)c3ccccc3)C1)N(C(=O)CN1CCOCC1)C2", "T. brucei": 2.373, "Toxoplasma": 6.723}